Consider one substance from patent US20020160953A1.

Amino acid sequences for entries named in this document (tags omitted). A change or cut given only in a name is not applied to a line headed by its entry. Residues count along the entry.
UniProt Q96T91, residues 24-129: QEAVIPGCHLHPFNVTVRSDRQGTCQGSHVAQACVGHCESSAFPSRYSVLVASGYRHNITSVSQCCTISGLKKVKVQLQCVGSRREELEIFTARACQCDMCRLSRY
UniProt Q86YW7: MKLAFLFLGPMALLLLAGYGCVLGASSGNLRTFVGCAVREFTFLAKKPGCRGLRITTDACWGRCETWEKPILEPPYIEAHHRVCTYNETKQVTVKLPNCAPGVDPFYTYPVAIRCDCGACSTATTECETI

This assay has as its target Zsig51 (UniProt Q96T91). Nature of the assay: co-immunoprecipitation in both directions (anti-Zsig51 and anti-Zlut1 polyclonals), purified proteins mixed or conditioned medium of co-infected cells, Western blot. For orientation: In western blotting, separated proteins are transferred to a membrane and probed.

These are yes or no findings as the source states them, for the method shown. Binding seen in cells or lysates may run through a third protein. Some binding calls cover weakened binding; strength is not graded here.

Consider “human Zlut1 (mammalian glycoprotein hormone-1) (from UniProt Q86YW7 25-130) (ligand)”, for which the binding result is given as “binds”.
